Results deposited as PubChem BioAssay AID493246 (Drosophila RNAi Screening Center, 2011).

- Purpose: 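Genome-wide search for dsRNAs that reduce cell number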 (primary screen)
- System: Drosophila Kc and S2R+ cells
- Reagent: long dsRNA against Drosophila genes
- Detection: 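Cell number per well after knock-down, printed as raw plate values; calls were based on per-plate z-scores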
- Direction: Kc cell number and S2R+ cell number: higher = more cells remaining
- Rule for the call: 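Counted as a hit if cell number falls by a z-score of at least 3 within its plate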
In all, the deposit lists about 21,000 reagents; shown is an unselected part of those with a known target gene and a result. In the full data, 429 (2%) got an active call. 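Values are raw and not normalised between plates; calls rest on per-plate z-scores that were not deposited.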 Names joined by + are all predicted targets of the reagent. Not given: the amount of reagent, the time to read-out.

no.	Gene	DRSC id	Kc cell number, rep 1	Kc cell number, rep 2	S2R+ cell number, rep 1	S2R+ cell number, rep 2	outcome
1	sxe2	DRSC15692	1.49e6	1.54e6	1.12e6	1.22e6	inactive
2	CG14692	DRSC14915	1.59e6	1.75e6	1.37e6	1.45e6	inactive
3	Arf4	DRSC17195	1.62e6	1.57e6	9.44e5	1.07e6	inactive
4	COX7B	DRSC10895	1.28e6	1.38e6	1.08e6	1.28e6	inactive
5	Ppn	DRSC15328	1.58e6	1.68e6	1.01e6	1.16e6	inactive
6	CG2767	DRSC15451	1.56e6	1.70e6	1.14e6	1.23e6	inactive
7	rib	DRSC07021	1.38e6	1.40e6	1.15e6	1.20e6	inactive
8	CG13616	DRSC14619	1.60e6	1.69e6	1.04e6	1.17e6	inactive
9	CG12551 (retired record)	DRSC04857	1.71e6	1.80e6	1.24e6	1.35e6	inactive
10	CG12551 (retired record)	DRSC04864	1.63e6	1.64e6	1.26e6	1.38e6	inactive
11	CG4025	DRSC18523	1.46e6	1.48e6	1.05e6	1.15e6	inactive
12	Ptr	DRSC04852	1.63e6	1.60e6	1.40e6	1.50e6	inactive
13	Sc2	DRSC08162	1.36e6	1.46e6	1.13e6	1.15e6	inactive
14	Cpr47Eg	DRSC07330	1.54e6	1.58e6	1.20e6	1.24e6	inactive
15	VhaM9.7-d	DRSC15028	1.35e6	1.33e6	1.05e6	1.15e6	inactive
16	CG5265	DRSC15756	1.27e6	1.33e6	1.06e6	1.21e6	inactive
17	unc	DRSC20511	1.85e6	1.85e6	1.20e6	1.36e6	inactive
18	hig	DRSC07628	1.48e6	1.53e6	9.77e5	1.05e6	inactive
19	Gbeta5	DRSC17754	1.63e6	1.58e6	1.05e6	1.15e6	inactive
20	GluRIID	DRSC16723	1.30e6	1.35e6	1.17e6	1.28e6	inactive
21	CG3199	DRSC15467	1.53e6	1.46e6	1.05e6	1.18e6	inactive
22	NaPi-III	DRSC10893	1.25e6	1.39e6	1.28e6	1.09e6	inactive
23	NaPi-III	DRSC10894	1.35e6	1.36e6	8.80e5	1.01e6	inactive
24	CG13995	DRSC00907	1.43e6	1.42e6	1.02e6	1.18e6	inactive
25	CG13995	DRSC02327	1.65e6	1.32e6	1.14e6	1.30e6	inactive
26	CG8841	DRSC07286	1.46e6	1.55e6	1.20e6	1.25e6	inactive
27	l(1)G0469	DRSC19412	6.31e5		9.24e5		inactive
28	l(1)G0469	DRSC19462	1.46e6	1.49e6	1.05e6	1.09e6	inactive
29	tou	DRSC06006	1.40e6	1.44e6	1.12e6	1.20e6	inactive
30	AIMP3	DRSC04500	1.60e6	1.71e6	1.34e6	1.36e6	inactive
31	E2f1	DRSC16655	1.27e6	1.19e6	4.88e5	5.49e5	active
32	dgt1	DRSC15301	4.55e5		8.27e5		inactive
33	NijA	DRSC10637	1.54e6	1.46e6	1.20e6	1.32e6	inactive
34	CG8379	DRSC16414	1.56e6	1.73e6	1.31e6	1.51e6	inactive
35	CG7156	DRSC16207	1.58e6	1.61e6	1.30e6	1.38e6	inactive
36	CG7896	DRSC16335	5.01e5		8.72e5		inactive
37	CG7201	DRSC10786	1.59e6	1.43e6	1.12e6	1.23e6	inactive
38	Npc2e	DRSC15522	1.69e6	1.72e6	1.15e6	1.33e6	inactive
39	CG14435	DRSC17928	1.26e6	1.39e6	9.29e5	9.51e5	inactive
40	CG33181	DRSC17971	1.63e6	1.62e6	1.07e6	1.22e6	inactive
41	Qsox2	DRSC15287	1.49e6	1.52e6	1.29e6	1.34e6	inactive
42	wmd	DRSC04436	1.39e6	1.44e6	1.16e6	1.25e6	inactive
43	mRpS23	DRSC01348	1.50e6	1.60e6	1.03e6	1.22e6	inactive
44	CG3104	DRSC00567	1.50e6	1.61e6	1.05e6	1.04e6	inactive
45	CG33268	DRSC10143	1.54e6	1.53e6	1.37e6	1.46e6	inactive
46	Brr2	DRSC10559	1.37e6	1.47e6	8.64e5	9.30e5	inactive
47	CG1951	DRSC15403	5.44e5		8.62e5		inactive
48	Mst57Da + alpha4GT2	DRSC13732	1.30e6	1.66e6	1.12e6	9.22e5	inactive
49	Lcp4	DRSC07458	1.52e6	1.62e6	1.27e6	1.40e6	inactive
50	yellow-e2	DRSC15169	1.31e6	1.47e6	1.06e6	1.23e6	inactive
51	CG33017	DRSC06573	1.46e6	1.60e6	1.18e6	1.27e6	inactive
52	CG33017	DRSC06574	1.46e6	1.55e6	1.15e6	1.20e6	inactive
53	CG4676	DRSC06879	1.72e6	1.79e6	1.18e6	1.31e6	inactive
54	CG13056	DRSC09937	1.38e6	1.52e6	1.15e6	1.34e6	inactive
55	shf	DRSC18283	1.62e6	1.52e6	1.03e6	1.15e6	inactive
56	CG11563	DRSC14327	1.53e6	1.54e6	9.96e5	1.12e6	inactive
57	CG10222	DRSC09714	1.49e6	1.64e6	1.28e6	1.32e6	inactive
58	bsk	DRSC03499	1.47e6	1.52e6	1.20e6	1.29e6	inactive
59	CG9300	DRSC11064	1.48e6	1.58e6	1.17e6	1.25e6	inactive

Records listed above with an active call (1):
Gene	DRSC id	Kc cell number, rep 1	Kc cell number, rep 2	S2R+ cell number, rep 1	S2R+ cell number, rep 2	outcome
E2f1	DRSC16655	1.27e6	1.19e6	4.88e5	5.49e5	active
